Measurements reported in patent publication US20240344026A1, “Methods to Activate Gamma Delta T cells for Antibody Dependent Cellular Cytotoxicity” (Intellistem, Inc., priority 2023, published 2024).

Test system: Gamma Delta T cells
Test: Percentage (purity) of Gamma Delta T cells by flow cytometry
Type: cell-based
Experimental: Cell counts and cell viability were established using a hemocytometer and the trypan blue exclusion method. Cell count and proliferation rate of Gamma Delta T cells was calculated on the basis of the cell number of the MNC and the percentage of Gamma Delta T cells on the MNC determined by flow cytometry.
MNC stimulated with the preferred protocol of the present invention consist mainly of Gamma Delta T cells (>90%) and further purification was generally not necessary. MNCs stimulated with R10F and Ko-Op consist mainly of γδ T cells, but especially after stimulation with R10F (prior art), also of αβ T cells and NK cells. If the product had too high a concentration of Alpha Beta T cells and NK cells to compare activity of Gamma Delta T cells cultivated in prior art or present invention mediums, Alpha Beta T cells and NKp46+ were depleted from stimulated MNC after 10 days of cultivation using the MidiMACS system and anti-TCR Alpha Beta and anti-NKp46 MicroBeads (all from Miltenyi Biotec, Bergisch Gladbach, Germany) according to manufacturer's instructions except using HSA (CSL Behring GmbH, Marburg, Germany) instead of BSA as part of the washing buffer.
For further testing, MNC were again isolated from healthy donors and cultivated with R10F (prior art) and a preferred embodiment of the present invention over 17 days.

[1] = changed stimulant vs standard protocol, zoledronate pulse or IL-15 instead of IL-2

Row | Molecule | proportion of Gamma Delta T cells (purity of the cell product) [1] | proportion of Gamma Delta T cells (purity of the cell product) (IL-15 instead of IL-2 combined with zoledronate pulse)
1 | O=P(O)(O)C(O)(Cn1ccnc1)P(=O)(O)O [zoledronate, reference compound] | significantly reduced | –
2 | IL-15: interleukin used at 10 ng/ml in place of IL-2 | significantly reduced | significantly reduced
